# Library screening results

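Viability assay of Plasmodium falciparum sporozoites; the read-out is not stated. The concentration is filed as 10 mM, unlikely as a test dose, so the dose is not known. Direction is inferred from retests: higher values go with lower viability. Strong results were mostly tested again. Size under these conditions: about 34,000 compounds, about 280 of them at 50% or above in at least one test.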

Values are the deposited “Percent Effect”, in %. The controls that fix the scale are not given in the record; negative values are as filed. This is an unselected part of the compounds tested. Two or more numbers in one place are separate tests of the same structure; such repeats can differ widely.

structure | percent effect
CSCc1cccc(S(=O)(=O)NCCCn2ccnc2)c1 | 3.49
OCC(CO)N1CCCC(Cc2cnc(Nc3ccccn3)cn2)C1 (stereo not drawn) | 3.086
O=C(O)C(F)(F)F.O=C(O)C(F)(F)F.O=C(O)C(F)(F)F.c1cc(CN2CCOCC3(CCN(CC4CCOCC4)CC3)C2)ccn1 | -3.038
O=C(O)C(F)(F)F.[H][C@@]12COC[C@]1(COCC1CC1)CN(Cc1cnn(C)c1)C2 | 5.429
Cc1ncc2c(n1)CN(Cc1nc(-c3cccs3)no1)CC2 | 42.77 & 25.84 & 31.67
COc1ccccc1CCN(C)C(=O)NC(C)c1nncn1C (stereo not drawn) | -11.27
O=C(Cc1ccccn1)N1CCN(C(=O)CC2CCCCC2)CC1 | -1.259
CN1CCC(NC(=O)NCCNc2ccccn2)CC1 | 0.5848
O=C(O)C(F)(F)F.[H][C@@]12COC[C@]1(COC)CN(Cc1ccc3c(c1)OCO3)C2 | -9.283
COc1ccc(CN2CCn3cc(CN4CCN(C)CC4)nc3C2)cc1.O=C(O)C(F)(F)F.O=C(O)C(F)(F)F.O=C(O)C(F)(F)F | -1.371
CCCC(C)CN1CCC(n2cc(CCCO)nn2)CC1 (stereo not drawn) | -16.57
[H][C@@]12CN(CCOC)C[C@]1([H])[C@H](OC)CCN2C(=O)CCc1ccccc1 | 0.1238
[H][C@@]12CCN(CCN(C)C)[C@@]1([H])CCN2C(=O)c1cccc(Cl)c1 | -10.68
CC(=O)c1cccc(NC(=O)Cn2cc(I)cn2)c1 | -26.3 & -12.74 & -33.87
CCCc1noc(C(C)N2CCN(Cc3nc(C)c(C)o3)CC2)n1 (stereo not drawn) | 13.52
CC(C)c1cc(N2CCN(c3ccc(O)cc3)CC2)n2nccc2n1 | 7.173
Cc1nc(CN2CCCN(C(=O)c3c(C)oc(C)c3C)CC2)cs1 | 9.558
CC(NC(=O)Cn1ccnc1)c1ccc(OCC2CC2)c(F)c1 (stereo not drawn) | -8.839
CC(NC(=O)NCCNc1cccc(F)c1C#N)c1cccs1 (stereo not drawn) | -18.72
COCC1CC2(CCN(c3cccc(C)n3)CC2)CN1C(C)C.O=C(O)C(F)(F)F.O=C(O)C(F)(F)F (stereo not drawn) | 20.08
COC(=O)c1ccc(NC(=O)CCc2ccco2)cc1 | -17.56
Cc1cc(C)n(-c2cncc(N3CCN(C(=O)C(C)C)CC3)n2)n1 | -7.574
COc1cccc(-c2noc(C3CCN(Cc4ccccc4F)C3)n2)c1.Cl (stereo not drawn) | 7.612 & -8.669 & 31.92
COCCNC(=O)NCCc1ccn(-c2ccccc2)n1 | 5.012
[H][C@]12CO[C@H](CNS(C)(=O)=O)[C@@]1([H])CCN(Cc1cccnc1)C2 | 2.6
CN(CCCc1ccccc1)Cc1nc2c(cnn2C)c(=O)[nH]1 | 1.76
O=C(O)C(F)(F)F.[H][C@@]12CCC(=O)N(c3ccccc3)[C@]1([H])CCN2Cc1cnn(C)c1 | 4.216
CC(C)n1c(=O)nc2n1C(=O)N(c1ccc(F)cc1)C2 | -2.368
Cn1cc(CN2CCC(F)(F)C3(CCN(c4ccccn4)C3)C2)cn1.O=C(O)C(F)(F)F.O=C(O)C(F)(F)F (stereo not drawn) | 19.25
CCn1nc2c(cc1=O)CN(Cc1nc(C)c(C)o1)CC2 | 5.476
CC1(C)Cc2ccccc2-c2nc(NCCO)[nH]c(=O)c21 | -2.142
CC(=O)NCCNC(=O)CNC1CCCN(c2ccc(C)nn2)C1 (stereo not drawn) | 8.59
CCOC(=O)CCn1cnc2onc(-c3ccc(OC)cc3)c2c1=O | 0.9991
O=C(O)C(F)(F)F.O=C(O)C(F)(F)F.[H][C@@]12COC[C@]1([H])[C@@H](OCCN(C)C)CN2Cc1ccco1 | 12.07
CN(C(=O)c1cccc2[nH]ncc12)C1CCN(c2ccccn2)CC1 | 0.4624
CC(C)COC(=O)N1CC(=O)N(CCCc2ccccc2)CC(O)C1 (stereo not drawn) | -34.06
O=C(O)C(F)(F)F.[H][C@@]12CCN(S(C)(=O)=O)C[C@]1(C(=O)NCCc1ccccn1)CCO2 | 8.995
C[S+]([O-])CCNC(=O)N1CCSC(C)(C)C1 (stereo not drawn) | -5.965
CNC(=O)C1CN(C(=O)c2ccccc2)Cc2cn(C)nc21 (stereo not drawn) | 5.89
COCCCN(Cc1cnc(C2CCCCC2)nc1)C1CCN(C)CC1 | -7.264 & -12.54
Cc1ccnc(C2CCN(C(=O)c3cnn(C)c3)CC2)n1 | -0.9512
COc1ccccc1-n1c(C)cc(CNC(=O)NC(C)C)c1C | 12.08
CC(C)OCCCNC(=O)CC1(Cn2cnnn2)CCCCC1 | -2.089
CCCS(=O)(=O)N1CCC2(CN(c3ccsc3)C(=O)CN2C)C1.O=C(O)C(F)(F)F (stereo not drawn) | 6.088
Nc1nc(C2CCN(C(=O)c3cncs3)CC2)cs1 | -24.05
O=C(c1ccc2c(c1)COC2)N1CCCC(n2cncn2)C1 (stereo not drawn) | 2.106
Cc1noc(C)c1CN(C)Cn1c(=O)oc2ccccc21 | -5.335 & 0.1345
Cc1csc(N2CCCN(C(=O)Cn3cncn3)CC2)n1 | 8.291
Cl.Cl.O=C(NCc1cncc2c1CCN(CC1CCOC1)C2)c1ccco1 (stereo not drawn) | 16.7
COc1ccc(C2=C(C)C(N3CCc4ccccc4C3)=NS2(=O)=O)cc1 | -13.07
CN(Cc1ccc(Cl)s1)C(=O)CN(C)C1CCCc2ccccc21 (stereo not drawn) | -10.12
CS(=O)(=O)NCCNC(=O)c1ccc(OCc2ccccc2)nc1 | -15.7
CN(C)CC1CN(C(=O)NCc2ccccc2)Cc2nccn2C1.O=C(O)C(F)(F)F (stereo not drawn) | -11.88
Cc1n[nH]c(C)c1NC(=O)CN1CCCC1c1noc(C(C)C)n1 (stereo not drawn) | 5.27
Cc1cc(NC(=O)CN2CCn3c(nnc3C(C)C)C2)n(C)n1 | 15.66
Cc1nc(C2(O)CCCNCC2)sc1CCOc1ccccc1Cl.Cl (stereo not drawn) | 5.256
COc1c(C2CCCN2C(=O)c2cccc(C(N)=O)c2)c(C)nn1C (stereo not drawn) | -3.699
CC(NC(=O)N1CCC(CO)CC1)c1csc2ccccc12 (stereo not drawn) | 5.876
COc1ncccc1NC(=O)NCC(O)c1ccc(F)cc1F (stereo not drawn) | -1.671
O=C(O)C(F)(F)F.[H][C@@]12CCN(Cc3ccccc3C)C[C@]1([H])O[C@@H](C(=O)N(C)C)C2 | -4.136

The last 8 entries again:

- CN(C)CC1CN(C(=O)NCc2ccccc2)Cc2nccn2C1.O=C(O)C(F)(F)F (stereo not drawn) | -11.88%
- Cc1n[nH]c(C)c1NC(=O)CN1CCCC1c1noc(C(C)C)n1 (stereo not drawn) | 5.27%
- Cc1cc(NC(=O)CN2CCn3c(nnc3C(C)C)C2)n(C)n1 | 15.66%
- Cc1nc(C2(O)CCCNCC2)sc1CCOc1ccccc1Cl.Cl (stereo not drawn) | 5.256%
- COc1c(C2CCCN2C(=O)c2cccc(C(N)=O)c2)c(C)nn1C (stereo not drawn) | -3.699%
- CC(NC(=O)N1CCC(CO)CC1)c1csc2ccccc12 (stereo not drawn) | 5.876%
- COc1ncccc1NC(=O)NCC(O)c1ccc(F)cc1F (stereo not drawn) | -1.671%
- O=C(O)C(F)(F)F.[H][C@@]12CCN(Cc3ccccc3C)C[C@]1([H])O[C@@H](C(=O)N(C)C)C2 | -4.136%

Source: ChEMBL document CHEMBL3988442, “University of Dundee, Small-Polar-MMV Screening Library” (2021).